Experimental data as given in publication PMC10163288.
Some of the results follow.

B1: il2ra_site1_2b5i_sap_27_mot_4bcee0fe17877636eff8393fb91a8ef2_0001_000000207_0001_16_30_H_._45a6e126aa060a182dcbb06e484dbe47_0001_1_af2_0001_0000200011_0000001_0 … (protein)
chain: SSSSSEKYDKVYELYKEALKLWKAGKKEEAKKLLEEAIKIAKELGSEKLVAELEALLERLSSSSS
B2: il2ra_site1_3nfp_sap_8_mot_HHH_b1_06287_af2_000000026_0001_41_57_H_._HHH_b2_05531_0001_0000600039_0000001_0_0001 (protein)
chain: SSSSDVRREAQELAREISELVKQGDREEARELLEELEELAEEFGSPLLERLVRQFKESIDSSSSS
B3: il2ra_site2_2erj_sap_20_mot_197fb4328e114ea57185fc38a0d327c6_0001_af2_000000091_0001_18_33_H_._8637e1c0d1640c2ded9eeeee1e5fead8_0001_0001_0000900007_0000001_0_0 … (protein)
chain: SSSSDDEEEDALRVIEEMIERAEEEGDEELLEFLARFLERTVEDVNNPELEELLKRLRELLSSSS
B4: il2ra_site2_2erj_sap_15_mot_HHH_b1_08207_af2_000000250_0001_43_57_H_._HHH_b2_05116_0001_0000200024_0000001_0_0001 (protein)
chain: SSSDKEEAEELYEQAKELLERGNPEEALRVLRRAATLAFESGDEELFSRLAELAHEIARAGSSSS
B5: il2ra_site1_3nfp_normal_mot_HHH_b1_05523_000000054_0001_1_19_H_._HHH_b1_02077_af2_0001_0000300017_0000001_0_af2pred_0001_af2pred_1_swapped (protein)
chain: SSSSSLRERIKELIEEAARLARNGDPEEARKVLEEALELAEELGSKSAERFVRQALKILYSSSSS
B6: il2ra_site2_3nfp_sap_22_mot_HHH_b1_07992_000000217_0001_38_52_H_._HHH_b1_07677_af2_0001_0000300023_0000001_0_0001 (protein)
chain: SSSSSDREWERAVKAALRFAKQVDDEELRRSALEWARAVALMGNDPELEELVEEVARELESSSSS
B7: il2ra_site2_2erj_normal_mot_HHH_b2_06726_000000006_0001_1_16_H_._HHH_b1_02584_0001_0000800018_0000001_0_af2pred_0001_1_af2pred_swapped (protein)
chain: SSSSSSDLEEEAEELIERAKRIEDPEEALIILLDAAAALAHANNEELEREVSKLVHELQSSSSSS
B8: il2ra_site1_1z92_normal_mot_HHH_b1_00499_000000281_0001_1_17_H_._HHH_b2_06820_af2_0001_0000100005_0000001_0 (protein)
chain: SSSSDEREELVARAIVKAVVQVAGLSEEDQEELEKIAEELLKEGVDELEVIKIIDELALKLSSSS
B9: il2ra_site1_3nfp_sap_11_mot_HHH_b1_01159_af2_000000075_0001_1_20_H_._HHH_b1_01434_af2_0001_0000400043_0000001_0_0001_af2pred_0001_af2pred (protein)
chain: SSSSTREFQELVKEVLRALKEGNPEEAKKLIEELEEIAERRNDPAAKFLVEHLEEKLRRLNSSSS
B10: il2ra_site1_1z92_sap_16_mot_HHH_b1_01250_000000104_0001_1_17_H_._HHH_b1_03515_af2_0001_0000100003_0000001_0_0001_af2pred_0001_af2pred_swapped (protein)
chain: SEIEEELREAVEKNDEELLREFIEIALRAAGDPRLVKQLLKILVKRLGLPPEVLERLEELLEELT
B11: il2ra_site2_3nfp_sap_15_mot_HHH_b2_04369_af2_000000237_0001_1_17_H_._99435e095d70fd56fcad6a1c72fb48ac_0001_1_0001_0000100001_0000001_1_0001 (protein)
chain: SSSSDEEEELQKLLERIKELIERGNPEEAEEVSAEAARLAFELNDEESFAILAELLLEIASSSSS
B12: il2ra_site1_1z92_sap_23_mot_cda1634bf71a07e6bb6bfbc1e51fcdca_0001_af2_000000299_0001_1_14_H_._HHH_b1_07386_0001_0000300018_0000001_0_0001 (protein)
chain: SSSSDERLKKSLEIAVEAAVKLAGLSEEQKEELEELAEELAERGVDFLEAIKIVDRLAARLSSSS
B13: il2ra_site1_1z92_normal_mot_HHH_b1_00199_000000288_0001_44_57_H_._ems_p1-16H-GBL-16H-GABBL-15H_0053_0001_0001_0001_af2_0001_0000200005_0000001_0 (protein)
chain: SSSSSDRIEKLAEILEKFARLSGNEEALEVVEEALEAFRKGELDDEQVLELLEEALRLLHSSSSS
B14: il2ra_site2_3nfp_normal_mot_HHH_b2_05139_000000249_0001_1_19_H_._HHH_b1_07677_af2_0001_0000200018_0000001_0 (protein)
chain: SSSSSEEEIRFKAAVLAIELAEKGDEELLRKLNRVIYQLMFEGDPRLVEELEEVIEEIEKSSSSS
B15: il2ra_site1_2b5i_normal_mot_3116615af0ee64d731c1c85d8523bf51_0001_000000216_0001_15_32_H_._HHH_b1_02665_af2_0001_0000200015_0000001_0_af2pred_dldesign_0_af2pred (protein)
chain: SSSSSFRDLMEELAALLAEIAARGDDEAYEKAEELFDKAVKSNDKSILEEAIAYARARLAESSSS
B16: il2ra_site1_2b5i_normal_mot_306e237eb68499aa2c78cb84ccc46c3c_0001_000000068_0001_33_49_H_._HEEHE_1920_af2_0001_0000300023_0000001_0 (protein)
chain: DEEEALKIALERAAEAFNVPSVEVETHNGKVHIHIEGTDEKARSLSNFARQLAEKQGVDVEVEVE
B17: il2ra_site1_3nfp_normal_mot_HHH_b2_07409_000000012_0001_1_20_H_._baccb1425719751948be6dbafe1f343b_0001_0001_0000700059_0000001_0 (protein)
chain: SAEYLLEALLKDAGVPPEEIEEAKRLLKEAEERNAPPEELAELVREILEELGNPRLAELVRKLLK
B18: il2ra_site1_3nfp_normal_mot_HHH_b1_04221_000000040_0001_40_56_H_._HHH_b1_07229_0001_0000100003_0000001_0_af2pred_0001_1_af2pred_swapped (protein)
chain: SSSSSSSSHEIAEEMIRLAEEEGSERLLEKLLEDLEKFAKRLNDPRAEELIKELEEYLSSSSSSS
B19: il2ra_site2_2erj_normal_mot_90f6a21de4ed711cb697bb9f61d9c40c_0001_af2_000000135_0001_36_50_H_._HHH_b2_00034_0002_0000700042_0000001_0_af2pred_0001_af2pred_1 (protein)
chain: SSSDEEVKERLEELLEELVKELNLSEEAERFLRRVVEFLLREGASEEEAERIVEASAEILASSSS

molecular target: il2ra, P01589; test: yeast display titration

Row | Binder | apparent Kd
1 | B1 | inactive: no binding seen
2 | B2 | inactive: no binding seen
3 | B3 | inactive: no binding seen
4 | B4 | inactive: no binding seen
5 | B5 | inactive: no binding seen
6 | B6 | inactive: no binding seen
7 | B7 | inactive: no binding seen
8 | B8 | inactive: no binding seen
9 | B9 | inactive: no binding seen
10 | B10 | inactive: no binding seen
11 | B11 | inactive: no binding seen
12 | B12 | inactive: no binding seen
13 | B13 | inactive: no binding seen
14 | B14 | inactive: no binding seen
15 | B15 | inactive: no binding seen
16 | B16 | inactive: no binding seen
17 | B17 | inactive: no binding seen
18 | B18 | inactive: no binding seen
19 | B19 | inactive: no binding seen

Given comma-delimited: entries from further up
Row,Binder,apparent Kd
8,B8,inactive: no binding seen
9,B9,inactive: no binding seen
10,B10,inactive: no binding seen
14,B14,inactive: no binding seen
